These are yes or no findings as the source states them, for the method shown. In cells and extracts the contact can be indirect. For part of these data: Where a sequence is shown, tags or fusion partners need not be part of it.
Key:
[1] = biological target: importin-β1 (KPNB1), endogenous in human iPSC-derived motor neurons (human (endogenous in iPSC-derived MNs)) (UniProt Q14974); experiment: co-IP; day 40 iPSC-derived MN lysates (control line), DSP cross-linking before lysis; endogenous KPNB1 immunoprecipitated with mouse anti-KPNB1 on Protein A Dynabeads, IgG control; Western blot
[2] = biological target: T1, hemagglutinin (HA)-tagged NEK1 (NIMA-related kinase 1) (human) (UniProt Q96PY6); experiment: co-IP; HA-NEK1 expressed in HEK293FT cells, immunoprecipitated (anti-HA), Western blot for endogenous proteins; DSP cross-linking before lysis
T1 sequence: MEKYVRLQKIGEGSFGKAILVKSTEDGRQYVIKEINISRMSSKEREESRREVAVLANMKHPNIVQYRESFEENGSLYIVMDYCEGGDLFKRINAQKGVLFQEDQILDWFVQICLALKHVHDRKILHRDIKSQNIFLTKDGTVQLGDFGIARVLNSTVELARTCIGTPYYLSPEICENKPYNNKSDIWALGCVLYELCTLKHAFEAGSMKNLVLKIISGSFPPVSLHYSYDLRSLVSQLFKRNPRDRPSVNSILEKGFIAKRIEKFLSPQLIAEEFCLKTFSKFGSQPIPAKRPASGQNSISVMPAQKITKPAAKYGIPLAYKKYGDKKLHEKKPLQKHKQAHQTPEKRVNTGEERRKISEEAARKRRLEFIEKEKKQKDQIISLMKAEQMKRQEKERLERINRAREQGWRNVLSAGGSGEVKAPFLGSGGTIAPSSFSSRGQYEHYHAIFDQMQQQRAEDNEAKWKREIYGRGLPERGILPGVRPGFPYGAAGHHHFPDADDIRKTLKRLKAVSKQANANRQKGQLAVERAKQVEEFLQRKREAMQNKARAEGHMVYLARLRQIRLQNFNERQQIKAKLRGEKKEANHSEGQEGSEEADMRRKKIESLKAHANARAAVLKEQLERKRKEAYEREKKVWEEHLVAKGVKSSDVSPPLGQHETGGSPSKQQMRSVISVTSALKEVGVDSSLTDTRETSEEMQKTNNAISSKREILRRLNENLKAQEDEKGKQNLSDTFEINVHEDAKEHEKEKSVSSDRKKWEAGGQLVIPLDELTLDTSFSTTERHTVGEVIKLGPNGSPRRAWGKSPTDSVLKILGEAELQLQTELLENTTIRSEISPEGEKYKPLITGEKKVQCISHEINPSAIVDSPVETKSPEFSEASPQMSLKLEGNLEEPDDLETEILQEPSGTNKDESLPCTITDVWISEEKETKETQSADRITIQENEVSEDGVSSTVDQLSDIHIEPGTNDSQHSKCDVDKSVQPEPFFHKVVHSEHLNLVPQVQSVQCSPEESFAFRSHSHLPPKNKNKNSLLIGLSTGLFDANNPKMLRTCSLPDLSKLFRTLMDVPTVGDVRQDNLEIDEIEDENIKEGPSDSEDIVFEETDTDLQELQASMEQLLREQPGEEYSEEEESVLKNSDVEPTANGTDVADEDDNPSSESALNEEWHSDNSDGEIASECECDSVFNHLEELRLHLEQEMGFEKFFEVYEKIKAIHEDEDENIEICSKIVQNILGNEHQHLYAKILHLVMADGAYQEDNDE

By UniProt entry, the sequences of proteins in these tests, tags left out.
UniProt Q14974: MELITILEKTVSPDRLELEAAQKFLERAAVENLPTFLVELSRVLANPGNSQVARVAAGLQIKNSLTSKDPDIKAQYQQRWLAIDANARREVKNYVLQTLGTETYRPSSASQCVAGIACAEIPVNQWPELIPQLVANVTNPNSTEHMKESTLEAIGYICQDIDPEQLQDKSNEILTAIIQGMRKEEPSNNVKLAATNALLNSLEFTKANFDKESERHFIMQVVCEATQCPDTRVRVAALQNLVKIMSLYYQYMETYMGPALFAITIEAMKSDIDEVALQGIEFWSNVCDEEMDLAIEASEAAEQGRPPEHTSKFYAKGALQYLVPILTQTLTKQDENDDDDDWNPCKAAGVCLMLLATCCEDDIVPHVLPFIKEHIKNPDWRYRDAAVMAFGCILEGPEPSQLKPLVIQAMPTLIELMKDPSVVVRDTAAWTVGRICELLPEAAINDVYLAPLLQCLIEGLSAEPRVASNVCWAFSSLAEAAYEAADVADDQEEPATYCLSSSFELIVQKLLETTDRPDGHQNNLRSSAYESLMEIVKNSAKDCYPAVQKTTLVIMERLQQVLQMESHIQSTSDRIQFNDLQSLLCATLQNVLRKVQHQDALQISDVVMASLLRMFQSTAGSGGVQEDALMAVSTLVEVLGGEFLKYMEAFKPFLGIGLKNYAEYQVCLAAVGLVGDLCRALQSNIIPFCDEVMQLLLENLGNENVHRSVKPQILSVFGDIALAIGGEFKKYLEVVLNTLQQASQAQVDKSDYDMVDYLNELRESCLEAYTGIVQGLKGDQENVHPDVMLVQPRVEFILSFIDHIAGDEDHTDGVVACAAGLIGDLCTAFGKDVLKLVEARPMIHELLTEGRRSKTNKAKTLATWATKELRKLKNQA
UniProt Q07065: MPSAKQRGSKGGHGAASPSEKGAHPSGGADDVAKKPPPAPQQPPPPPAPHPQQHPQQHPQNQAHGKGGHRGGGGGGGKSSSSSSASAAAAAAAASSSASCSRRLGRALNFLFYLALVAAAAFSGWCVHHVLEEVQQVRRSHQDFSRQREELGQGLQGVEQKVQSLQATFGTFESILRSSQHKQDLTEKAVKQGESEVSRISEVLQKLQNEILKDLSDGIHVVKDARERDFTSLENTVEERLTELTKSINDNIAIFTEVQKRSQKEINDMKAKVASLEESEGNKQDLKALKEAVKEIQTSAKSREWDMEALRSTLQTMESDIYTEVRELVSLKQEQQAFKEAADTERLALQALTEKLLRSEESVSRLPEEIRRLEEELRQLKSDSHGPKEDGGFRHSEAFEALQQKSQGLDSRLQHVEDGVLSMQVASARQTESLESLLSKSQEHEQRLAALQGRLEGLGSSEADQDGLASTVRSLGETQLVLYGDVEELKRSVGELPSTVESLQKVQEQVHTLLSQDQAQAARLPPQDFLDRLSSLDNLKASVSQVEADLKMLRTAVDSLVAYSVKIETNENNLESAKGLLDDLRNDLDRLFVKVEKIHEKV
UniProt Q9UPY8: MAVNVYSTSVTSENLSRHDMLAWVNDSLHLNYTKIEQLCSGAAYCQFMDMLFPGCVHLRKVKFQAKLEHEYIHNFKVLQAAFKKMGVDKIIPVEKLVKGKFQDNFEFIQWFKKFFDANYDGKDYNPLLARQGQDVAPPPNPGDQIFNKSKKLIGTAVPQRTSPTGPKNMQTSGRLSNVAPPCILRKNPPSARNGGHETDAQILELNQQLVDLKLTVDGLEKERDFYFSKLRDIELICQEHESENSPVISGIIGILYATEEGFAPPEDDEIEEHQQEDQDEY

binding [1] | Substance | binding [2]
no binding | CLIMP63, endogenous in human iPSC-derived motor neurons (from UniProt Q07065 1-602) | –
– | CLIMP63, endogenous in HEK293FT cells (from UniProt Q07065 1-602) | no binding
no binding | EB3 (from UniProt Q9UPY8 1-281) | –
